For 1 substance, binding results are on record in paper PMC10450662.

Sequences of proteins named here, by UniProt entry; tags and fusion partners are left off.
UniProt P24391: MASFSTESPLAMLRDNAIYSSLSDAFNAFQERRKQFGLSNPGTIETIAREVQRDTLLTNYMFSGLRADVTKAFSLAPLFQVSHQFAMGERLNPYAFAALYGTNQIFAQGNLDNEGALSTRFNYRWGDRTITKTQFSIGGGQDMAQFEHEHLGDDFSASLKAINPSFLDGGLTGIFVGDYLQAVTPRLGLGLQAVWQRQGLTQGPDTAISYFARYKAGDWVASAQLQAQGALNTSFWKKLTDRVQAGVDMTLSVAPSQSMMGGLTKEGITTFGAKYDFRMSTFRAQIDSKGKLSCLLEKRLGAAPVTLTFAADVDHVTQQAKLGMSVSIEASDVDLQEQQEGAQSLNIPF
UniProt Q07335: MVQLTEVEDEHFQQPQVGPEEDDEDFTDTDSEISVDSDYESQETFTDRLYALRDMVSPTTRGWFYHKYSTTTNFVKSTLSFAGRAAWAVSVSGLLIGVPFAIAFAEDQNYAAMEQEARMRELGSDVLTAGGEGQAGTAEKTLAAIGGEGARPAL
UniProt Q7SG90: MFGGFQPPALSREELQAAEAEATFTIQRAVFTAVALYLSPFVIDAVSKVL

Results are given in words; binding and its absence hold for the method and conditions named. For some assays here: Binding seen in cells or lysates may run through a third protein. Some entries that bind do so weakly or less than the wild type.

Assay [1] deals with Tom40 of the Neurospora crassa TOM complex (Neurospora crassa) (UniProt P24391). Put plainly: cryo-EM structure; TOM core complex dimer in GDN, co-purified from N. crassa, C2 symmetry, 3.32 Å; 50 mM KPO4 pH 8.0, 50 mM KCl, 1 mM EDTA, 1 mM TCEP, 0.02% GDN; both purified.
Assay [2] deals with Tom22 of Neurospora crassa with a hexahistidine tag (Neurospora crassa) (UniProt Q07335). Kind of assay: pull-down + SEC; His6-Tom22 held on a nickel-NTA column from outer membrane vesicles of N. crassa GR-107 solubilised in 1% GDN (10 mM MOPS pH 7.0, 50 mM potassium acetate, 50 mM imidazole), eluted with 300 mM imidazole, then Superdex 200 Increase; subunits seen by SDS-PAGE with Coomassie staining.

“Tom5 of the Neurospora crassa TOM complex (from UniProt Q7SG90 1-50)”: the binding result in assay [1] and in assay [2] was “binds” each time.
